In the supplement of paper PMC12819154, “High-throughput peptide-centric local stability assay extends protein–ligand identification to membrane proteins, tissues and bacteria” (Nature Structural & Molecular Biology, 2025):
This is one part of the list. Small differences around the control level are noise.

Sequences of proteins named here, by UniProt entry; tags and fusion partners are left off. A change or cut given only in a name is not applied to a line headed by its entry.
UniProt P32929, whole entry: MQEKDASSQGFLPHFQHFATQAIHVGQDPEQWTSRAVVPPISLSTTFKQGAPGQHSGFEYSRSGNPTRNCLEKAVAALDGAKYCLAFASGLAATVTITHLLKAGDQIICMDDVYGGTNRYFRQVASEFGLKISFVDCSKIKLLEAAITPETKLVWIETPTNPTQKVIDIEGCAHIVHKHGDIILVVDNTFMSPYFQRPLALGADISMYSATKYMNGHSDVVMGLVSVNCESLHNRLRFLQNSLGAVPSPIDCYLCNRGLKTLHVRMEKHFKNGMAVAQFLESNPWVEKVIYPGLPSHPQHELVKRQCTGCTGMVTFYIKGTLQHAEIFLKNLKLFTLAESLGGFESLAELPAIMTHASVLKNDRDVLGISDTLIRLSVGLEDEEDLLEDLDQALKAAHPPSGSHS
UniProt P31949: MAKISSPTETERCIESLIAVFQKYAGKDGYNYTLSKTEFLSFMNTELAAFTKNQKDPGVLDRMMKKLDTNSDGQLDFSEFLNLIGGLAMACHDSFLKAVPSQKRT
UniProt P34949: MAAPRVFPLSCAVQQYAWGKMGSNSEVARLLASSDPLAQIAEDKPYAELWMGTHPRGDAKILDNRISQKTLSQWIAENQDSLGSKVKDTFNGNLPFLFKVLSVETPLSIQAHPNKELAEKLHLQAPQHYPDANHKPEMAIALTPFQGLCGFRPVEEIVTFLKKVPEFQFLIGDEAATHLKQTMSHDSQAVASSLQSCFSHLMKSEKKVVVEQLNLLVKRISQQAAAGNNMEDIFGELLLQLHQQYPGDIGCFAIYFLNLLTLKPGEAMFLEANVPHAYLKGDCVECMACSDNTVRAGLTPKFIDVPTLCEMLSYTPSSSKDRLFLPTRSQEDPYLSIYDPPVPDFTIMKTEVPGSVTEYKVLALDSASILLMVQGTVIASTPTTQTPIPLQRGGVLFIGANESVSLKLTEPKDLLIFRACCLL
UniProt P37837: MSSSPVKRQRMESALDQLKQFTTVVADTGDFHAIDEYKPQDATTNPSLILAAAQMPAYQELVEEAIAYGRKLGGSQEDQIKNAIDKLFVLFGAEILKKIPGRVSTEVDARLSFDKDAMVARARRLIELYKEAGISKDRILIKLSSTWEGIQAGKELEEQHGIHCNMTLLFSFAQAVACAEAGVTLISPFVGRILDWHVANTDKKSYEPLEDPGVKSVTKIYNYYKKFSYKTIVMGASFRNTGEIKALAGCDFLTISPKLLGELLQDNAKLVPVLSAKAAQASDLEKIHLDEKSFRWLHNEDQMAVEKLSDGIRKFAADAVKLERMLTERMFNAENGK
UniProt P32780: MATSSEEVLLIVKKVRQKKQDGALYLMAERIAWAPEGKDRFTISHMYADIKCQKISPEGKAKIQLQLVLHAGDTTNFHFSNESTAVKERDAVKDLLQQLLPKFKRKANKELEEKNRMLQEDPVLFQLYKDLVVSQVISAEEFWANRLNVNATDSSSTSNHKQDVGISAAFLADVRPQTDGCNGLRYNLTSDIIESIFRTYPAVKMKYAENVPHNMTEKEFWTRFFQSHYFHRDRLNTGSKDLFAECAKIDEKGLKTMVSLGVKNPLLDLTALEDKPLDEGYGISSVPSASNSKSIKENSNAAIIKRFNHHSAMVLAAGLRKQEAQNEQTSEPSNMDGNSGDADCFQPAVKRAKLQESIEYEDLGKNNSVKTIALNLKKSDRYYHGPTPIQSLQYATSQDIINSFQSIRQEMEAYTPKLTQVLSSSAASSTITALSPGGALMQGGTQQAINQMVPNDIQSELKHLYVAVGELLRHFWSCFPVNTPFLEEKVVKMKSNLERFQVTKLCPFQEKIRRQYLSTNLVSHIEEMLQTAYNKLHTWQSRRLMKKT
UniProt P36575, whole entry: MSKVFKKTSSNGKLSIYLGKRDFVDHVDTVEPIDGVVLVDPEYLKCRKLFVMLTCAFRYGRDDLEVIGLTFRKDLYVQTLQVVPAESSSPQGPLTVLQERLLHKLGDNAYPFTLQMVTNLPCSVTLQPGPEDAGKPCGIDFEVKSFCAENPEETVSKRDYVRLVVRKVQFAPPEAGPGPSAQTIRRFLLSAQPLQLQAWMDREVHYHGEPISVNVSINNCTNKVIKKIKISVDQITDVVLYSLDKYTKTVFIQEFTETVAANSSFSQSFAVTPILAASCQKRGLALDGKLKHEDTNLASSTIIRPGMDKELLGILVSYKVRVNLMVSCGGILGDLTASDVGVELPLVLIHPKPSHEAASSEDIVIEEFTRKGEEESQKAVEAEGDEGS
UniProt P34910: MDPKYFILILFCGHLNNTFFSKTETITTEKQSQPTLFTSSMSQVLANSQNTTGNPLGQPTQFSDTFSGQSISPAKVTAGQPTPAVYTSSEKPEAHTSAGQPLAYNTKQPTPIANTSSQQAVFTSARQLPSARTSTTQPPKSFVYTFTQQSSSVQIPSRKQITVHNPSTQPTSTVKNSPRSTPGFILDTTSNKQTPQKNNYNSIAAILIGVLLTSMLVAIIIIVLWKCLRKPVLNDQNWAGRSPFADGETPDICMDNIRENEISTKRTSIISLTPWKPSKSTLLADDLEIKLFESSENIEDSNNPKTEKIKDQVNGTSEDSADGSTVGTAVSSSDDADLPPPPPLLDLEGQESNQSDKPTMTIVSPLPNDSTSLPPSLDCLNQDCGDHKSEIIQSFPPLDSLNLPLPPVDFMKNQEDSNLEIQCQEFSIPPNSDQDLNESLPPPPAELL
UniProt P36542: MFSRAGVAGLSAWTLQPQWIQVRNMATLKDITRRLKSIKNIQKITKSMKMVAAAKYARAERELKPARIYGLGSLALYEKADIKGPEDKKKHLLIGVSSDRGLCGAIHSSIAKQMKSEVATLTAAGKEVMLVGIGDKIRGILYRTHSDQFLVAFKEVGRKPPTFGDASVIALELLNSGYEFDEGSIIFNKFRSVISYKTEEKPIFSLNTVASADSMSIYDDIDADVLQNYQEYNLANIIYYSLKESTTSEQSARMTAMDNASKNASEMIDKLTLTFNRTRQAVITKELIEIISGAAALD
UniProt P36543, whole entry: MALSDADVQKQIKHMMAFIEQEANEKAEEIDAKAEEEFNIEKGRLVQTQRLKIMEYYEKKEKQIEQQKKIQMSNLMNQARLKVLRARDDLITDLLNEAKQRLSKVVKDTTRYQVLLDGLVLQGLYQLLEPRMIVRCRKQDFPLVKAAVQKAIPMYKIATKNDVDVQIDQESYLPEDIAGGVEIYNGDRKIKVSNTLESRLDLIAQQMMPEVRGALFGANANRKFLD
UniProt P41134: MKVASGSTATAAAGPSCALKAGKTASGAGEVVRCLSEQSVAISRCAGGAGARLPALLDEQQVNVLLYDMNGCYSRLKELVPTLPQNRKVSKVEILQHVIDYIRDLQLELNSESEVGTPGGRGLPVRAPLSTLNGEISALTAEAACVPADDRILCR
UniProt P39687: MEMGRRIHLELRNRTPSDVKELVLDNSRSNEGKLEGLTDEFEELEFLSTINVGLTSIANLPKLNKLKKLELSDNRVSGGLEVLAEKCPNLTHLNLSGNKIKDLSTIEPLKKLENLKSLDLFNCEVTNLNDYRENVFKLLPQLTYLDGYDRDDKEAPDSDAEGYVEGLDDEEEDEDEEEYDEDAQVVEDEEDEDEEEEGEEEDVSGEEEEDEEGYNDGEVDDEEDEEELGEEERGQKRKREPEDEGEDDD
UniProt P33552, whole entry: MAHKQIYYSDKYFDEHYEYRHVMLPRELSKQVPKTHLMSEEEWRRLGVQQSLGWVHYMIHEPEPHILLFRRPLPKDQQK
UniProt P30101, whole entry: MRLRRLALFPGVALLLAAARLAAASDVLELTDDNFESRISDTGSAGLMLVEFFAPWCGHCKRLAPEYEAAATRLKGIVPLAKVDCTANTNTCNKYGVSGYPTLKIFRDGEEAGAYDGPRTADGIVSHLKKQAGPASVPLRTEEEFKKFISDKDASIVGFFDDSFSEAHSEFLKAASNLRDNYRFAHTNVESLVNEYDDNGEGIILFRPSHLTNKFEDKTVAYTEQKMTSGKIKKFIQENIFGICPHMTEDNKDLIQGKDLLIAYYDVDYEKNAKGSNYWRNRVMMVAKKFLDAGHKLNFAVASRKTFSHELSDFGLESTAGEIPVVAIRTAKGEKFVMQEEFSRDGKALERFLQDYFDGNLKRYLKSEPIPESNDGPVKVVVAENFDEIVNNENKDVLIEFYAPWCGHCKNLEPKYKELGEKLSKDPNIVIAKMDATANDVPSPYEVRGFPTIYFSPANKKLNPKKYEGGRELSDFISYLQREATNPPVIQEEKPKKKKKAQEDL
UniProt P35222, whole entry: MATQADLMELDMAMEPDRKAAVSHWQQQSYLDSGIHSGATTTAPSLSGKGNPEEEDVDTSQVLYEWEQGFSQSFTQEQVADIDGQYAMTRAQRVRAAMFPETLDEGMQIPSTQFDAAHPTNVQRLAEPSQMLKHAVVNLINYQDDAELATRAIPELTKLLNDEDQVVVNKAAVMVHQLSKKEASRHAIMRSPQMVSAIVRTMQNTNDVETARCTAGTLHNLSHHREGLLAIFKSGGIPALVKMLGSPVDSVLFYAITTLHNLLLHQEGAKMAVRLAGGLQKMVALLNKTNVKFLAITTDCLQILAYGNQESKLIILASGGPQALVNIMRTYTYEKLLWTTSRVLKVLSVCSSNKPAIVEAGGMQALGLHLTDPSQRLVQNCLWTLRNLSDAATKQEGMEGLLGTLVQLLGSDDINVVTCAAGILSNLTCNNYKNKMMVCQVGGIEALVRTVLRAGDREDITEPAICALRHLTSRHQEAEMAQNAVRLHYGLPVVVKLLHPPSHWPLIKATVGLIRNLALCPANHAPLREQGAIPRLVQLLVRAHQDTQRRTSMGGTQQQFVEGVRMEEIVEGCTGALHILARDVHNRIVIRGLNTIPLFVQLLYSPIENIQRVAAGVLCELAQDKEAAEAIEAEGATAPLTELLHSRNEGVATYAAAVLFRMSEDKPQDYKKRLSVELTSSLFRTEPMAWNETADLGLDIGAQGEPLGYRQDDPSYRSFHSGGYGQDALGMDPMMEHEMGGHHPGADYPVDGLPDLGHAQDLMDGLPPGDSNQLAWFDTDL
UniProt P29536: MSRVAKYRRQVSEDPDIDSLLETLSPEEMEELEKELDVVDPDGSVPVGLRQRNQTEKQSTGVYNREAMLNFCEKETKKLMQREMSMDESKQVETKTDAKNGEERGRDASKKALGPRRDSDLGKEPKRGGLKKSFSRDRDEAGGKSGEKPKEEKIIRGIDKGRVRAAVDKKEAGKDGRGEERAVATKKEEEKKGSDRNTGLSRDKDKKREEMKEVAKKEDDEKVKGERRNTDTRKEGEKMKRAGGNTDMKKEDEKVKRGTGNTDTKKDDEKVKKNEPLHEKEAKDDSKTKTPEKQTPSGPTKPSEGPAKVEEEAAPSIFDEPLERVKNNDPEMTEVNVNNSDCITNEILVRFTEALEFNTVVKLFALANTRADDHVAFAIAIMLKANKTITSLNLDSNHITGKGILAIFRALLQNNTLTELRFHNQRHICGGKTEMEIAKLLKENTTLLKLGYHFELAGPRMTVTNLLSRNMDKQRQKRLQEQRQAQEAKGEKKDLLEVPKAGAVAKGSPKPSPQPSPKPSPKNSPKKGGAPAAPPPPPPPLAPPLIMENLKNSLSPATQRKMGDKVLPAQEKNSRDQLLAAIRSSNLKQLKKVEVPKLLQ
UniProt P43243: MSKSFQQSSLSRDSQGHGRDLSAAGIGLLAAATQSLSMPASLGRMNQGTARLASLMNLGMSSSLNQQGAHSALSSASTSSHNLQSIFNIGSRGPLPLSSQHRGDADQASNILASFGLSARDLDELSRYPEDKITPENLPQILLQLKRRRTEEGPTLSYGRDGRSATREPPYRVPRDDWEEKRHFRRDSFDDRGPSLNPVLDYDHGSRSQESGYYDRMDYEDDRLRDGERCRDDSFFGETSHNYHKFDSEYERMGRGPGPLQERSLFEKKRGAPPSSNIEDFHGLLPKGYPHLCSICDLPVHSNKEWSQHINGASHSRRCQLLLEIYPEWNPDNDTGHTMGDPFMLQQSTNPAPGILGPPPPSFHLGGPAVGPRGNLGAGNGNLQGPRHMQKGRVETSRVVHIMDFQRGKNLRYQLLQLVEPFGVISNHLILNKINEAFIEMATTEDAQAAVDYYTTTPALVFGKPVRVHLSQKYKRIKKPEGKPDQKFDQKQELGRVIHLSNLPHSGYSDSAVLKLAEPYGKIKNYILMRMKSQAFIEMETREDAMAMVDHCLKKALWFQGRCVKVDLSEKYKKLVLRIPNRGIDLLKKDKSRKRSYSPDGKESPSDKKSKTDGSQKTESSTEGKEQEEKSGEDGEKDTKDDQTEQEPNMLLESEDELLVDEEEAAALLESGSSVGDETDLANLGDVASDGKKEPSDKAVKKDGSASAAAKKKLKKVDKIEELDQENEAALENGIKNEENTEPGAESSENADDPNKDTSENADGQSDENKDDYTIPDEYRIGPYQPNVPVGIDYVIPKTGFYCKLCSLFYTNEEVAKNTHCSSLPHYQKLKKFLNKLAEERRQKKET
UniProt P30626: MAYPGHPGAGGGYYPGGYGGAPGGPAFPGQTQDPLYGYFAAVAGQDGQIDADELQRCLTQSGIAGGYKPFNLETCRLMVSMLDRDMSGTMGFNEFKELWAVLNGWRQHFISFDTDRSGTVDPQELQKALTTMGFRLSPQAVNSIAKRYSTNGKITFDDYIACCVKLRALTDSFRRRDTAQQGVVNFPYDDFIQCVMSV

Each target was assayed with CN[C@@H]1C[C@H]2O[C@@](C)([C@@H]1OC)n1c3ccccc3c3c4c(c5c6ccccc6n2c5c31)C(=O)NC4 [staurosporine] (assay: log2 fold change of tryptic peptide abundance, ligand vs vehicle (limited proteolysis) (log2 ratio); higher = more trypsin-susceptible (destabilized)). Settings: ligand concentration: 20 uM; sample: K562 cleared lysate; digestion: 4 min, 22 C (HT-PELSA RT4min, Orbitrap Astral).
For “CTH (peptide sequence: VIYPGLPSHPQHELVKR, peptide start residue: 289) (UniProt P32929)”, the log2 fold change was 0.399.
“TKT (peptide sequence: AVELAANTK, peptide start residue: 457) (UniProt P29401)” gave a log2 fold change of -0.334.
“S100A11 (peptide sequence: DGYNYTLSK, peptide start residue: 28) (UniProt P31949)” gave a log2 fold change of -0.0594.
For “MPI (peptide sequence: TEVPGSVTEYK, peptide start residue: 350) (UniProt P34949)”, the log2 fold change was 0.448.
“TALDO1 (peptide sequence: LLGELLQDNAK, peptide start residue: 259) (UniProt P37837)” showed a log2 fold change of 0.23.
For “GTF2H1 (peptide sequence: TIALNLKK, peptide start residue: 371) (UniProt P32780)”, the log2 fold change was 0.232.
Target “UniProt P36575 (peptide sequence: YGRDDLEVIGLTFRK, peptide start residue: 59)” has a log2 fold change of 0.0632.
“TEAD1 (peptide sequence: ALQHMAAMSSAQIVSATAIHNK, peptide start residue: 118) (UniProt P28347)” showed a log2 fold change of 0.0973.
Target “EVI2B (peptide sequence: STLLADDLEIK, peptide start residue: 280) (UniProt P34910)” has a log2 fold change of -0.209.
In the case of “UniProt P36542 (peptide sequence: LTLTFNR, peptide start residue: 271)”, the log2 fold change is reported as 0.17.
In the case of “ATP6V1E1 (peptide sequence: VSNTLESR, peptide start residue: 192) (UniProt P36543)”, the log2 fold change is reported as -0.157.
In the case of “ID1 (peptide sequence: TASGAGEVVR, peptide start residue: 24) (UniProt P41134)”, the log2 fold change is reported as -0.151.
In the case of “CASP2 (peptide sequence: RGPQAFDAFCEALR, peptide start residue: 94) (UniProt P42575)”, the log2 fold change is reported as 0.149.
For “CCT6A (peptide sequence: TLNPKAEVARAQAALAVNISAAR, peptide start residue: 6) (UniProt P40227)”, the log2 fold change was 0.774.
“ANP32A (peptide sequence: KREPEDEGEDDD, peptide start residue: 238) (UniProt P39687)” was tested, and the log2 fold change was -0.21.
Work on “RPL35 (peptide sequence: KKEELLK, peptide start residue: 13) (UniProt P42766)” yielded a log2 fold change of 0.0943.
Target “STAT5A (peptide sequence: GAESVTEEK, peptide start residue: 431) (UniProt P42229)” has a log2 fold change of 0.377.
Work on “MDH1 (peptide sequence: EVGVYEALKDDSWLK, peptide start residue: 206) (UniProt P40925)” yielded a log2 fold change of -0.495.
For “CKS2 (peptide sequence: THLMSEEEWRR, peptide start residue: 35) (UniProt P33552)”, the log2 fold change was -0.37.
“PDIA3 (peptide sequence: QAGPASVPLRTEEEFK, peptide start residue: 131) (UniProt P30101)” showed a log2 fold change of 0.45.
With “MYH10 (peptide sequence: KHQQLLEEK, peptide start residue: 881) (UniProt P35580)” the log2 fold change was 0.279.
Work on “HNRNPH3 (peptide sequence: LLGQRPGPYDRPIGGR, peptide start residue: 106) (UniProt P31942)” yielded a log2 fold change of -0.459.
“CTNNB1 (peptide sequence: LSVELTSSLFR, peptide start residue: 674) (UniProt P35222)” showed a log2 fold change of 0.172.
For “HPCAL1 (peptide sequence: MPEDESTPEKR, peptide start residue: 138) (UniProt P37235)”, the log2 fold change was -0.134.
Work on “CHKA (peptide sequence: GLREDEFHISVIR, peptide start residue: 105) (UniProt P35790)” yielded a log2 fold change of -0.468.
Target “UniProt P29536 (peptide sequence: KEGEKMK, peptide start residue: 234)” has a log2 fold change of 0.221.
Target “MATR3 (peptide sequence: EDAMAMVDHCLKK, peptide start residue: 543) (UniProt P43243)” has a log2 fold change of 0.23.
Work on “SRI (peptide sequence: QHFISFDTDRSGTVDPQELQK, peptide start residue: 107) (UniProt P30626)” yielded a log2 fold change of 0.306.
Work on “ADSL (peptide sequence: KVDIEVLSVLASLGASVHK, peptide start residue: 246) (UniProt P30566)” yielded a log2 fold change of -0.282.
